Experimental data published in paper PMC4212580.

Chains of the proteins cited; added tags and fusions are not shown.
UniProt Q14240: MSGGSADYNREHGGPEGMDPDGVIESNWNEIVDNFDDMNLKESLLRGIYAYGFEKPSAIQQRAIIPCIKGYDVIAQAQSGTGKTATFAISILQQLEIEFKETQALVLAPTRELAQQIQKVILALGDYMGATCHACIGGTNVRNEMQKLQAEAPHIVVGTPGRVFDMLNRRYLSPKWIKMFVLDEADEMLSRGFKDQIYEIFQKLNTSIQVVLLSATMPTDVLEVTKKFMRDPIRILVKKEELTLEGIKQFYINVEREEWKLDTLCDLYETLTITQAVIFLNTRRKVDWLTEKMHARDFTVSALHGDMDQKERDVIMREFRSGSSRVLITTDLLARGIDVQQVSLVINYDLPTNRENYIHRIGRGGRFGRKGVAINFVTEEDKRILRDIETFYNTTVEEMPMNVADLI
UniProt P60842: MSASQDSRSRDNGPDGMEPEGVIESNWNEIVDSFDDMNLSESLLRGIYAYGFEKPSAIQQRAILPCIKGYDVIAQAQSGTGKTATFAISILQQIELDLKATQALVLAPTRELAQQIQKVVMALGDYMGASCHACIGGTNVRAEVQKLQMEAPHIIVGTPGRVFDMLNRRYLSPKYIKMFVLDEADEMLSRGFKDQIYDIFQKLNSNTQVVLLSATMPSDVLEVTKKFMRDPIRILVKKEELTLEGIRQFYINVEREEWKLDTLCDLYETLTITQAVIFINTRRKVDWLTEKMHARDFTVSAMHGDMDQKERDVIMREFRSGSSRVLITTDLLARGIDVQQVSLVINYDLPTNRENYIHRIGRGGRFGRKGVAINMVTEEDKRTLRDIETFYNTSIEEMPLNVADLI

Assays:
[1] = target: GFP-eIF4AII (eukaryotic translation initiation factor eIF4AII, GFP fused to the N-terminus) (human) (UniProt Q14240); assay: affinity purification with mass spectrometry; SILAC-labelled 293T cells transfected with GFP or GFP-eIF4AI/II; lysate (10 mM TrisCl pH 7.5, 150 mM NaCl, 0.5 mM EDTA, 0.5% NP40, RNase cocktail) on anti-GFP agarose, 4 °C, 2 hr; eluates mixed 1:1:1, LC-MS/MS; hits above 1.96 SD of the sample/mock ratios
[2] = target: GFP-eIF4AI (eukaryotic translation initiation factor eIF4AI, GFP fused to the N-terminus) (human) (UniProt P60842); assay: as above

binding [1]: no binding
binding [2]: no binding
B1: Keratin-1 cytoskeletal 9 (protein, UniProt P35527 1-623)
chain: MSCRQFSSSYLSRSGGGGGGGLGSGGSIRSSYSRFSSSGGGGGGGRFSSSSGYGGGSSRVCGRGGGGSFGYSYGGGSGGGFSASSLGGGFGGGSRGFGGASGGGYSSSGGFGGGFGGGSGGGFGGGYGSGFGGFGGFGGGAGGGDGGILTANEKSTMQELNSRLASYLDKVQALEEANNDLENKIQDWYDKKGPAAIQKNYSPYYNTIDDLKDQIVDLTVGNNKTLLDIDNTRMTLDDFRIKFEMEQNLRQGVDADINGLRQVLDNLTMEKSDLEMQYETLQEELMALKKNHKEEMSQLTGQNSGDVNVEINVAPGKDLTKTLNDMRQEYEQLIAKNRKDIENQYETQITQIEHEVSSSGQEVQSSAKEVTQLRHGVQELEIELQSQLSKKAALEKSLEDTKNRYCGQLQMIQEQISNLEAQITDVRQEIECQNQEYSLLLSIKMRLEKEIETYHNLLEGGQEDFESSGAGKIGLGGRGGSGGSYGRGSRGGSGGSYGGGGSGGGYGGGSGSRGGSGGSYGGGSGSGGGSGGGYGGGSGGGHSGGSGGGHSGGSGGNYGGGSGSGGGSGGGYGGGSGSRGGSGGSHGGGSGFGGESGGSYGGGEEASGSGGGYGGGSGKSSHS

Results are given in words; binding and its absence hold for the method and conditions named. Binding seen in cells or lysates may run through a third protein. These calls come from enrichment with a bait or labelling near it, and not all partners need be listed. A no says only that the protein was not detected with the bait.
